At least one peptide structure holds a part that was inferred or is arguable (an end, a ring closure or a residue). Ends that are not written are not given here.
Test system: MAP
Assay: Vasodepressor response (decrease of MAP) to intracarotid injection of bradykinin, control response
Format: in vivo, rats
Details: n=14, mean ± SE; for decrease of MAP: conscious rats pretreated with enalapril (1 mg/kg), no analog

RPPGFSPFR [bradykinin]
decrease of MAP (intracarotid injection of 125 ng): 24.98 ± 1.29 mmHg | decrease of MAP (intracarotid injection of 250 ng): 31.97 ± 1.26 mmHg | vasodepressor response to 125 ng lower than that to 250 ng: 22.21 ± 3.71%

From EP0502987B1, “ACYLATED BRADYKININ ANTAGONISTS AND USES THEREFOR” (TRUSTEES OF BOSTON UNIVERSITY, priority 1989, dated 1994)
